The source of these data is the supplement of paper PMC4604168 (melanoma cell lines).

This is one part of the list. Many values rest on one well or one pass, so single values are uncertain.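 Imaging used 1,536-well plates; nuclei positive for cleaved PARP by antibody were divided by total DNA-stained nuclei to yield the apoptosis fraction. Doses for screening kept most cells viable, and cell lines differ markedly in resting and induced cleaved-PARP levels.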

In the test the test system is CBRC008 (line from a melanoma biopsy). Briefly: cleaved PARP positive nuclei fraction relative to DMSO control; melanoma cells; higher = more apoptosis. Conditions: library dose: low library concentration; 72 h.
For `Cn1c(=O)n(-c2ccc(C(C)(C)C#N)cc2)c2c3cc(-c4cnc5ccccc5c4)ccc3ncc21` + CN1CCN(c2ccc3nc(-c4c(N)c5c(F)cccc5[nH]c4=O)[nH]c3c2)CC1 [Dovitinib] (first compound 0.004 µM, partner dose 0.1 µM), the “cleaved PARP positive nuclei fraction” value was determined as 31.1%.

Regarding `O=C(O)c1ccc2c(c1)nc(Nc1cccc(Cl)c1)c1ccncc12` + COc1ccc(Cl)c(Nc2nc3ccccc3nc2NS(=O)(=O)c2cccc(NC(=O)C(C)(C)N)c2)c1 [XL147] (first compound 0.4 µM, partner dose 0.8 µM), the “cleaved PARP positive nuclei fraction” value amounted to 49.6%.

On to `CNC(=O)c1cc(Oc2ccc(NC(=O)Nc3ccc(Cl)c(C(F)(F)F)c3)cc2)ccn1` [sorafenib] + OCc1c[nH]c2ccccc12 [Indole-3-carbinol] (first compound 0.4 µM, partner dose 0.8 µM), for which the “cleaved PARP positive nuclei fraction” value stood at 367%.

For `CO[C@H]1C[C@@H]2CC[C@@H](C)[C@@](O)(O2)C(=O)C(=O)N2CCCC[C@H]2C(=O)O[C@H]([C@H](C)C[C@@H]2CC[C@@H](OCCO)[C@H](OC)C2)CC(=O)[C@H](C)/C=C(\C)[C@@H](O)[C@@H](OC)C(=O)[C@H](C)C[C@H](C)/C=C/C=C/C=C/1C` [everolimus] + O=C(O)c1ccc2c(c1)nc(Nc1cccc(Cl)c1)c1ccncc12 [CX4945] (first compound 0.02 µM, partner dose 0.4 µM), the “cleaved PARP positive nuclei fraction” value was 215%.

Take `Cn1c(=O)n(-c2ccc(C(C)(C)C#N)cc2)c2c3cc(-c4cnc5ccccc5c4)ccc3ncc21` + O=C(O)c1ccc2c(c1)nc(Nc1cccc(Cl)c1)c1ccncc12 [CX4945] (first compound 0.004 µM, partner dose 0.4 µM): the “cleaved PARP positive nuclei fraction” value came out at 77.1%.
